Experimental data from patent US7842683B2, “Neurotherapeutic compositions and method” (Revaax Pharmaceuticals, LLC, priority 1999, dated 2010).
For at least one compound, name, drawing or mass did not settle the structure.

What was measured:
Male Wistar rats [1] = settings: literature; cited from earlier work
Male Wistar rats [2] = test: Elevated plus-maze (anxiolytic activity); format: in vivo, rat; settings: daily IP for seven days: CLAV 100 ng/kg, CDP 10 mg/kg
Description: The elevated plus-maze was developed for the detection of anxiolytic and anxiogenic drug effects in the rat (Pellow et al., 1985). The method has been validated behaviorally, physiologically, and pharmacologically. The plus-maze consists of two open arms and two enclosed arms. […] Conversely, anxiogenic compounds like yohimbin or amphetamines reduce open arm entries and time spent in the open arms.
Male Wistar rats weighing 250-300 g were group housed in a normal 12:12 light-dark cycle light on at 0800 hr and provide food and water ad libitum. The plus-maze consisted of two open arms, 50×10 cm, and two enclosed arms 50×10×40 cm with an open roof, arranged such that the two open arms were opposite to each other. The maze was elevated to a height of 50 cm.
Eight animals were tested in the plus-maze 90 min following IP injection with 50 μg/kg Mox and saline vehicle. The order of treatments was counter balanced with at least 48 hrs between injections. At the start of the experiment the animal was place in the center of the plus maze facing the closed arm. Over a five min observation period, animals were scored for the latency to enter the closed arm, time spent in the closed arm and the number of open arm entries following the first occupation of the closed arm (FIG. 7).
Because Mox and CDP have different bioavailability profiles, e.g. brain penetrance, their CNS activity could not be compared by giving systemic injections of equimolar concentrations of each drug. Instead it was necessary to give both drugs directly into the cerebroventricular system to by pass the blood brain barrier. […] Sixty min later animals were tested in the plus-maze for a 3 min observation period and scored for behaviors as noted previously. […]
Male Wistar rats weighing 250-300 g were group housed in a normal 12:12 light-dark cycle with light on at 0800 hr and provided food and water ad libitum. […] Over a five min observation period, animals were scored for the latency to enter the closed arm, time spent in the closed arm and the number of open arm entries following the first occupation of the closed arm. […]

CNC1=Nc2ccc(Cl)cc2C(c2ccccc2)=[N+]([O-])C1 [CDP, Chlordiazepoxide]
effective anxiolytic dose in the plus-maze (Male Wistar rats [1]): 10 to 25 mg/kg | latency to enter the dark closed arms (Male Wistar rats [2]): significantly greater | open arm entries (Male Wistar rats [2]): no significant difference | time spent exposed to light in the open arms (Male Wistar rats [2]): significantly greater
